Assay results taken from the supplement of paper PMC10849652.
The list shows a part of the results.

By UniProt entry, the sequences of proteins in these tests, tags left out. Where a name states a change or a piece, a line headed by the entry shows the natural chain unless it says otherwise.
UniProt P61011: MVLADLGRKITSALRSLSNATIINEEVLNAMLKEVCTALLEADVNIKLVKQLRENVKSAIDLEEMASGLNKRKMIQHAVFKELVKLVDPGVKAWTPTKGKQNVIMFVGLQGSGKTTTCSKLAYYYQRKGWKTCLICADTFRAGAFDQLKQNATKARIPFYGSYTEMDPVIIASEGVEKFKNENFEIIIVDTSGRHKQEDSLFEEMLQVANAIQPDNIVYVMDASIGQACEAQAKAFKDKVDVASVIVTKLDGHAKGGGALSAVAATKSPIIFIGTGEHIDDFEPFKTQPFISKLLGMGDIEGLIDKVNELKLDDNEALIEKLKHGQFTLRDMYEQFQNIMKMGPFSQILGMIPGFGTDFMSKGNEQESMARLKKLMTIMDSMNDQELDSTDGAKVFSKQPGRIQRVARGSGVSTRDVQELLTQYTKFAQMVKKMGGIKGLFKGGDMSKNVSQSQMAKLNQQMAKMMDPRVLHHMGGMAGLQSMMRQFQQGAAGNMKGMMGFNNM
UniProt Q9GZT4: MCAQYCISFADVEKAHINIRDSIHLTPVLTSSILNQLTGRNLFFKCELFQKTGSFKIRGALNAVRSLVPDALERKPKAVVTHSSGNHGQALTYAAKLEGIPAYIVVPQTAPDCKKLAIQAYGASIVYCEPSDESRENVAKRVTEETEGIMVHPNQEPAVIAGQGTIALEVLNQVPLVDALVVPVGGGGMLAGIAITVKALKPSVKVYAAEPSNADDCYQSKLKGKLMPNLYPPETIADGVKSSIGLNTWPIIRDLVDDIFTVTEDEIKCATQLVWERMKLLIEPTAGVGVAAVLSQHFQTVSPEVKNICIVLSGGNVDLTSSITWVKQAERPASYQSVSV
UniProt Q9UBP0: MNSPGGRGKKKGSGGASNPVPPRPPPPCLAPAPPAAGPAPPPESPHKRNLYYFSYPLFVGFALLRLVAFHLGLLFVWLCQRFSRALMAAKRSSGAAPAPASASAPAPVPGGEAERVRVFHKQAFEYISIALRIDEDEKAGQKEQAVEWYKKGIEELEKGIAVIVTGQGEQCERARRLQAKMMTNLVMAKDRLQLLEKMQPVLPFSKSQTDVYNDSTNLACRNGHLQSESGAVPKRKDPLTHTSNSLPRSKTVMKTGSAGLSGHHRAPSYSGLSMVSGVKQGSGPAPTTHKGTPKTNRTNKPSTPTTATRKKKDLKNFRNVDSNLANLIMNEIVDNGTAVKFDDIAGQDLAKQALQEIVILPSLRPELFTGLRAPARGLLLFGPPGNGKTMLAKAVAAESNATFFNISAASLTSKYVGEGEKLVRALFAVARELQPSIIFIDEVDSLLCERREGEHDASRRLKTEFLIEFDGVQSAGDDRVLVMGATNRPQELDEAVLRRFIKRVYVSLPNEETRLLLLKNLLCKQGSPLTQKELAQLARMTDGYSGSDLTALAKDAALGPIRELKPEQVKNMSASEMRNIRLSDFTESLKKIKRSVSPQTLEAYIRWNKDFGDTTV
UniProt Q15468: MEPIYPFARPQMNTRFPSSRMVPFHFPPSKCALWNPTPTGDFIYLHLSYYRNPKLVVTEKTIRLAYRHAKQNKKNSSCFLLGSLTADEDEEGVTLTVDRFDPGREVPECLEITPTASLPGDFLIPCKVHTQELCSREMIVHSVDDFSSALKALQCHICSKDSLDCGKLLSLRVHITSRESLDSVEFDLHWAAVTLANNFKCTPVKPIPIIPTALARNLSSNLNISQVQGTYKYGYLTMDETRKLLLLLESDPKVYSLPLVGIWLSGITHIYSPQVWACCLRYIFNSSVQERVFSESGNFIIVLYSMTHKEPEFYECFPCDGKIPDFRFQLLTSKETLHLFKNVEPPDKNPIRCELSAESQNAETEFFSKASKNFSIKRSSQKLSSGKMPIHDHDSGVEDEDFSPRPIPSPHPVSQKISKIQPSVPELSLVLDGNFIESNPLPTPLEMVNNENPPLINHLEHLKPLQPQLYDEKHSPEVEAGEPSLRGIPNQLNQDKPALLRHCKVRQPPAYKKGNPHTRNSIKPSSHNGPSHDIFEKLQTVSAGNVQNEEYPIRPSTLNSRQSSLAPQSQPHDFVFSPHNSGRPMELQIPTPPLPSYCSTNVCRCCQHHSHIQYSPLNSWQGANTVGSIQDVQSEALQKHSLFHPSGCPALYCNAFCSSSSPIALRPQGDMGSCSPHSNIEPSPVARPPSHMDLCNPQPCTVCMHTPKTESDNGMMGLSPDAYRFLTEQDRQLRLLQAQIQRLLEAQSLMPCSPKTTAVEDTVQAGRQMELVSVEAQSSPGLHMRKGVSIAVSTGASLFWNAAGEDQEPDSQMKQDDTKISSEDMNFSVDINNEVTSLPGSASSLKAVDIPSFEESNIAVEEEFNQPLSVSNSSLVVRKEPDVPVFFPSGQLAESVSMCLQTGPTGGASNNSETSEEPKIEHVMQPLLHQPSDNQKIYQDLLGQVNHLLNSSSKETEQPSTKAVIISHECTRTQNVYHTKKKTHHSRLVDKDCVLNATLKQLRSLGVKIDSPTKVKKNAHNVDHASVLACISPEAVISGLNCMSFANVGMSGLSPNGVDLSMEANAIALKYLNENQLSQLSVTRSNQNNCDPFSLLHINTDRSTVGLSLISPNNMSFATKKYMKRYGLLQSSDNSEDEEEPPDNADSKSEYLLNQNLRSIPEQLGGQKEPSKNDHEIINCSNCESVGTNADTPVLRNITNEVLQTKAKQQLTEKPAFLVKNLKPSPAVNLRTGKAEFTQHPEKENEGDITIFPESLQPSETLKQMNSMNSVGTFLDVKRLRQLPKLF
UniProt Q96EA4: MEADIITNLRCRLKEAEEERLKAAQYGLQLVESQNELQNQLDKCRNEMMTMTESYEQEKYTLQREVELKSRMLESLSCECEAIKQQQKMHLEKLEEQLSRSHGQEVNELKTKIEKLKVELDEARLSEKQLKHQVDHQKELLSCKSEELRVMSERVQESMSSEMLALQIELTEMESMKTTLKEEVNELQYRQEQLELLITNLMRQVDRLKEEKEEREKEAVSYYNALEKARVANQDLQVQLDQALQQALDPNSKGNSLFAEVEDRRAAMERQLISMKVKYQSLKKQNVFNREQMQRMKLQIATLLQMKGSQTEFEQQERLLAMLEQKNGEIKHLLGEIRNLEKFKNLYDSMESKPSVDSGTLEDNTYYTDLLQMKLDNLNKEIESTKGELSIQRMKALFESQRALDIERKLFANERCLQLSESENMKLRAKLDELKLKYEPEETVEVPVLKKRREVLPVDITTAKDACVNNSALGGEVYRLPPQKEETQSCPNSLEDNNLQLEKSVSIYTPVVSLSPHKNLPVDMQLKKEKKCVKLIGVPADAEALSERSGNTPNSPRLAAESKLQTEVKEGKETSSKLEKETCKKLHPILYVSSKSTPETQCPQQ
UniProt P16150: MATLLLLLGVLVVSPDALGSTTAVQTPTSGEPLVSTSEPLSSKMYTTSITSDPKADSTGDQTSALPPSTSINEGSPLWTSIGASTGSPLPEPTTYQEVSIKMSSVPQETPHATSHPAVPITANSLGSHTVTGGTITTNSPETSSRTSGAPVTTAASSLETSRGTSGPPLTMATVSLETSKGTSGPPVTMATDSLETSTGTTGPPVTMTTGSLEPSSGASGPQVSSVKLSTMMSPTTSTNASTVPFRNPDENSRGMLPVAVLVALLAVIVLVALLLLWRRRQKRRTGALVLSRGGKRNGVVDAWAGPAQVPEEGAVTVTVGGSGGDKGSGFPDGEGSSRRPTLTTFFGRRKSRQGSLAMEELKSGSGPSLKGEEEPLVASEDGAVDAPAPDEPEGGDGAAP
UniProt Q13242, whole entry, looked up: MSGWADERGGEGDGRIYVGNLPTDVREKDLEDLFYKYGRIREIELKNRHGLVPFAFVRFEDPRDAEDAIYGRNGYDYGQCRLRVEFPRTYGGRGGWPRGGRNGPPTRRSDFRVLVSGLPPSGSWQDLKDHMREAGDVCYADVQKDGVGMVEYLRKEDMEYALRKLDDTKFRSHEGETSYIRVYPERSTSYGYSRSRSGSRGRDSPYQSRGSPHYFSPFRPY
UniProt Q9BXP5: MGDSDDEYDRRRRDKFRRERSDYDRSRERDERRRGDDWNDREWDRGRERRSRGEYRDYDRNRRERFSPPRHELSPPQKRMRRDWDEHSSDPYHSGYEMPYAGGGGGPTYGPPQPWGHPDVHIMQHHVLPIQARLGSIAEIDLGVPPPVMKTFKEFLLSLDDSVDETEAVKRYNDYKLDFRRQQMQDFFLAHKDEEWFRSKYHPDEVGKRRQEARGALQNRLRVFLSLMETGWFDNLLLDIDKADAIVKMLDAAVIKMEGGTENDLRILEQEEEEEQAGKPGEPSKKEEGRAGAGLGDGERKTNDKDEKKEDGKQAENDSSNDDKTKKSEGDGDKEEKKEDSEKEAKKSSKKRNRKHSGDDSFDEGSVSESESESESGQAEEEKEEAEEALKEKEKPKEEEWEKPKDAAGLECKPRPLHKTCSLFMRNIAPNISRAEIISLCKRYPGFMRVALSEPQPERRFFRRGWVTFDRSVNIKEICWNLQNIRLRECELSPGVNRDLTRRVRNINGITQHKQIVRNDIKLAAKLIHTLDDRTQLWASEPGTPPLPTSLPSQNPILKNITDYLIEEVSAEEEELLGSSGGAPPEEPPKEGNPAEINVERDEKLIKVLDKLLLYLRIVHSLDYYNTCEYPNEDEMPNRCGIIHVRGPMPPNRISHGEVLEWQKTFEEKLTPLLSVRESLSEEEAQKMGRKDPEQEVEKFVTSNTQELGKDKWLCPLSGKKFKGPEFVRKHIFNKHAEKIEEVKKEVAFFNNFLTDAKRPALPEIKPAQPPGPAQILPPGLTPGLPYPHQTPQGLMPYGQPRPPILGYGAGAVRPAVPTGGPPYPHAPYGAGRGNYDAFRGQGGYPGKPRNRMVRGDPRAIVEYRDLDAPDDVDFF
UniProt Q8TCT7: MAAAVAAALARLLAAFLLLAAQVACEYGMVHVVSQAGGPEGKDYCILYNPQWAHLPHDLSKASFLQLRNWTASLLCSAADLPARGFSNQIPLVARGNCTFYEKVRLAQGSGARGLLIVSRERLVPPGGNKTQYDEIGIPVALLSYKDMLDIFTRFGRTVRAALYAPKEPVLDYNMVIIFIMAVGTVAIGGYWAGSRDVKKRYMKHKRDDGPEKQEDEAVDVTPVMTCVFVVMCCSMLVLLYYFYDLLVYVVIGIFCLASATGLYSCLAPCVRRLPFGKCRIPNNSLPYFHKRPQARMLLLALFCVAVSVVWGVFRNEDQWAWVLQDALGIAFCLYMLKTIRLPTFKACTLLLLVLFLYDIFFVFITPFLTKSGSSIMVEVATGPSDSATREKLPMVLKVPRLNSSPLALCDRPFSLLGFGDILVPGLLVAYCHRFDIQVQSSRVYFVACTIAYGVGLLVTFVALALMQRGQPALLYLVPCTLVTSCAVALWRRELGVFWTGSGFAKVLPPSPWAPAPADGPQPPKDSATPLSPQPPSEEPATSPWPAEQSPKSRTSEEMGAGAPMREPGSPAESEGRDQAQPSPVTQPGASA
UniProt P15907: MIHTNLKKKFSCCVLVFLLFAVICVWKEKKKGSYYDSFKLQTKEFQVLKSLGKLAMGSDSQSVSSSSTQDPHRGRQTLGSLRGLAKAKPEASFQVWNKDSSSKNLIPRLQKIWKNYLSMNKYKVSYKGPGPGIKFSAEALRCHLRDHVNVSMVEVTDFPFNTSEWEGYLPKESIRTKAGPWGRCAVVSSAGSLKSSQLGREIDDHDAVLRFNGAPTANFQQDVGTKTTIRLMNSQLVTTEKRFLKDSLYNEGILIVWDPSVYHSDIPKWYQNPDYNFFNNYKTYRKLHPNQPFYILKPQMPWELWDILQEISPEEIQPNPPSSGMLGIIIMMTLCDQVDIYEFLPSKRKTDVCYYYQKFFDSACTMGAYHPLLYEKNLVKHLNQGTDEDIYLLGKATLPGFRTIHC
UniProt Q9C004: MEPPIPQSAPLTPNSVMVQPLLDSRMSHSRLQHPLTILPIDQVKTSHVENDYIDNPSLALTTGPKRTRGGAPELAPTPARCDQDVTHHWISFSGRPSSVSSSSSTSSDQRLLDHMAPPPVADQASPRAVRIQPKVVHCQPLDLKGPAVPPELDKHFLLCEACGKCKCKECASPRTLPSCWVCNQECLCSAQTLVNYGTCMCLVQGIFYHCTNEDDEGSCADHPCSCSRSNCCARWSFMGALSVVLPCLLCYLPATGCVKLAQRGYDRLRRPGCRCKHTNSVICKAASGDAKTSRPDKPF
UniProt P05455: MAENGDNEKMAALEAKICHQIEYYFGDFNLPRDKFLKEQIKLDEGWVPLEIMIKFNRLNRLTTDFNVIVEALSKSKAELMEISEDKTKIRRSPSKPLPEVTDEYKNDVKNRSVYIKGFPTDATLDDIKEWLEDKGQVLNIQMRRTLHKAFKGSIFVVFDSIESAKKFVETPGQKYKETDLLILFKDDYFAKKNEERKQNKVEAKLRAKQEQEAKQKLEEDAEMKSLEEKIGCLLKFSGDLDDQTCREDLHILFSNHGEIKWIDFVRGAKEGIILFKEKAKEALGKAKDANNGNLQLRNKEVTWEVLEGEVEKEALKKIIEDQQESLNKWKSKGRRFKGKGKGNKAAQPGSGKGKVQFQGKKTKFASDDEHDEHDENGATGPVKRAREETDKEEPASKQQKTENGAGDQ

Legend:
Assay in all cases: log2 fold change, soluble protein after heating vs DMSO (PISA); higher = thermal stabilisation; K562 lysate, 10 uM; active = over 0.2 and 3.5 SD of the protein, either way, in both replicates (recomputed)
ibrutinib = compound: C=CC(=O)N1CCC[C@@H](n2nc(-c3ccc(Oc4ccccc4)cc3)c3c(N)ncnc32)C1 [ibrutinib]
Outline: (§1)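 Log-two fold change in thermal stability relative to solvent controls is reported from duplicates. For each sample, crude K562 extract from dounce-homogenised pellets in PBS pH 7.4 with 1 mM MgCl2, at 1 mg/mL protein, was treated with 10 μM compound for 30 min. Aliquots heated for 3 min across 48°C-58°C were pooled, brought to 0.5% NP-40 at 4°C and cleared at 21,000xg for 90 min. The supernatant was quantified by TMTpro 16plex LC-MS/MS with channel sums equalised.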

[1] = compound: CC(=O)c1cnc2ccc(-c3cc(Cl)c(O)c(Cl)c3)nc2c1N[C@H]1CC[C@H](CN(C)C)CC1
Outline: as §1

ralimetinib = compound: CC(C)(C)Cn1c(N)nc2ccc(-c3[nH]c(C(C)(C)C)nc3-c3ccc(F)cc3)nc21 [ralimetinib]
Outline: as §1

[2] = compound: CC(C)(O)CC(=O)NCCn1ccc2ncnc(Nc3ccc(Oc4cccc(C(F)(F)F)c4)c(Cl)c3)c21
Outline: as §1

[3] = compound: CC(C)C1=C2N=C(C=C(N2N=C1)NCC3=CC=CC=C3)NCCCCCCN
Outline: as §1

[4] = compound: CC1=C(C(CC(=O)N1)C2=CC=C(C=C2)C(F)(F)F)C(=O)NC3=C(C=C4C(=C3)C=NN4)F
Outline: as §1

[5] = compound: CC1=C(C2=C(C=C1)C(=O)C3=CC=CC=C3N2CCCN)C
Outline: as §1

[6] = compound: CC1=C(C=C(C=C1)NC(=O)C2=CC(=CC=C2)C(C)(C)C#N)NC3=CC4=C(C=C3)N=CN(C4=O)C
Outline: as §1

[7] = compound: CC1=C(C=C(C=C1)NC(=O)C2=CC(=CC=C2)N(C)C)NC(=O)C3=CC=C(C=C3)O
Outline: as §1

[8] = compound: CC1=CC=C(C=C1)SC2=C3C=C(SC3=CN=C2)C(=O)N
Outline: as §1

vemurafenib = compound: CCCS(=O)(=O)Nc1ccc(F)c(C(=O)c2c[nH]c3ncc(-c4ccc(Cl)cc4)cc23)c1F [vemurafenib]
Outline: as §1

[9] = compound: CCCS(=O)(=O)Nc1ccc(F)c(C(=O)c2c[nH]c3ncc(Cl)cc23)c1F
Outline: as §1

barasertib = compound: CCN(CCCOc1ccc2c(Nc3cc(CC(=O)Nc4cccc(F)c4)[nH]n3)ncnc2c1)CCOP(=O)(O)O [barasertib]
Outline: as §1

[10] = compound: CC[C@@H]1C(=O)N(C)c2cnc(Nc3ccc(C(=O)NC4CCN(C)CC4)cc3OC)nc2N1C1CCCC1
Outline: as §1

volasertib = compound: CC[C@@H]1C(=O)N(C)c2cnc(Nc3ccc(C(=O)N[C@H]4CC[C@H](N5CCN(CC6CC6)CC5)CC4)cc3OC)nc2N1C(C)C [volasertib]
Outline: as §1

[11] = compound: CCn1c(C(=O)N(C2CC2)C2CC2)cc2c3c(ncn3C)c(Nc3cc(C)n(C)n3)nc21
Outline: as §1

[12] = compound: CCn1cc(-c2ccnc3[nH]c(-c4cccc(CN(C)C)c4)cc23)c(-c2ccc(NC(=O)N(C)C)cc2)n1
Outline: as §1

[13] = compound: CN1CCC(CNc2ccc3ncc(-c4cccc(OC(F)(F)F)c4)n3n2)CC1
Outline: as §1

saracatinib = compound: CN1CCN(CCOc2cc(OC3CCOCC3)c3c(Nc4c(Cl)ccc5c4OCO5)ncnc3c2)CC1 [saracatinib]
Outline: as §1

sotrastaurin = compound: CN1CCN(c2nc(C3=C(c4c[nH]c5ccccc45)C(=O)NC3=O)c3ccccc3n2)CC1 [sotrastaurin]
Outline: as §1

Measured: log2 fold change

SRSF2 (UniProt Q01130)
inactive: ibrutinib 0.021 | [1] -0.009 | ralimetinib 0.034 | [2] -0.065 | [3] -0.013 | [4] -0.021 | [5] -0.015 | [6] 0.016 | [7] 0.028 | [8] -0.018 | vemurafenib -0.001 | [9] -0.014 | barasertib -0.007 | [10] 0.02 | volasertib 0.002 | [11] -0.065 | [12] -0.232 | [13] 0.153 | saracatinib 0.033 | sotrastaurin 0.024

SRP54 (UniProt P61011)
inactive: ibrutinib -0.039 | [1] -0.023 | ralimetinib 0.031 | [2] 0.015 | [3] 0.036 | [4] 0.034 | [5] -0.069 | [6] -0.021 | [7] 0.007 | [8] -0.009 | vemurafenib 0.02 | [9] -0.024 | barasertib 0 | [10] 0.068 | volasertib -0.024 | [11] 0.017 | [12] -0.059 | [13] 0.006 | saracatinib 0.043 | sotrastaurin 0.028

SRR (UniProt Q9GZT4)
inactive: ibrutinib -0.048 | [1] 0.097 | ralimetinib -0.047 | [2] -0.141 | [3] 0.037 | [4] 0.01 | [5] 0.102 | [6] 0.011 | [7] 0.163 | [8] -0.044 | vemurafenib 0.04 | [9] -0.106 | barasertib 0.011 | [10] 0.108 | volasertib 0.011 | [11] -0.053 | [12] -0.026 | [13] 0.075 | saracatinib -0.11 | sotrastaurin 0.139

SRPK2 isoform 2 (UniProt P78362)
inactive: ibrutinib -0.021 | [1] -0.009 | ralimetinib 0.01 | [2] -0.016 | [3] -0.026 | [4] -0.007 | [5] -0.014 | [6] 0 | [7] -0.022 | [8] 0.003 | vemurafenib 0.009 | [9] 0.022 | barasertib 0 | [10] 0.022 | volasertib -0.019 | [11] 0.01 | [12] -0.115 | [13] 0.054 | saracatinib -0.014 | sotrastaurin 0.049

SPAST (UniProt Q9UBP0)
inactive: ibrutinib 0.003 | [1] 0.01 | ralimetinib 0.005 | [2] -0.017 | [3] 0.008 | [4] 0.035 | [5] -0.005 | [6] -0.011 | [7] 0.036 | [8] -0.015 | vemurafenib 0.045 | [9] 0.021 | barasertib 0.07 | [10] -0.007 | volasertib -0.016 | [11] -0.023 | [12] -0.011 | [13] 0.042 | saracatinib 0.017 | sotrastaurin 0.032

STIL isoform 2 (UniProt Q15468)
inactive: ibrutinib 0.045 | [1] 0.009 | ralimetinib -0.049 | [2] 0.023 | [3] 0.018 | [4] 0.026 | [5] 0.014 | [6] 0.014 | [7] 0.014 | [8] 0 | vemurafenib 0.018 | [9] -0.059 | barasertib 0.042 | [10] 0.04 | volasertib -0.023 | [11] -0.032 | [12] -0.003 | [13] -0.016 | saracatinib 0.027 | sotrastaurin 0.045

SPCS1, A0A5F9YFS9
inactive: ibrutinib 0.111 | [1] 0.025 | ralimetinib 0.035 | [2] 0.012 | [3] -0.007 | [4] 0.035 | [5] 0.134 | [6] 0.024 | [7] 0.013 | [8] 0.032 | vemurafenib 0.073 | [9] -0.001 | barasertib 0.054 | [10] 0.017 | volasertib 0.017 | [11] 0.023 | [12] 0.008 | [13] -0.05 | saracatinib 0.087 | sotrastaurin -0.107

2 entries picked at random from the list so far, as already listed:
SRSF2 (UniProt Q01130)
inactive: ibrutinib 0.021 | [1] -0.009 | ralimetinib 0.034 | [2] -0.065 | [3] -0.013 | [4] -0.021 | [5] -0.015 | [6] 0.016 | [7] 0.028 | [8] -0.018 | vemurafenib -0.001 | [9] -0.014 | barasertib -0.007 | [10] 0.02 | volasertib 0.002 | [11] -0.065 | [12] -0.232 | [13] 0.153 | saracatinib 0.033 | sotrastaurin 0.024

SRPK2 isoform 2 (UniProt P78362)
inactive: ibrutinib -0.021 | [1] -0.009 | ralimetinib 0.01 | [2] -0.016 | [3] -0.026 | [4] -0.007 | [5] -0.014 | [6] 0 | [7] -0.022 | [8] 0.003 | vemurafenib 0.009 | [9] 0.022 | barasertib 0 | [10] 0.022 | volasertib -0.019 | [11] 0.01 | [12] -0.115 | [13] 0.054 | saracatinib -0.014 | sotrastaurin 0.049

(next part)

SPDL1 (UniProt Q96EA4)
inactive: ibrutinib 0.083 | [1] 0.002 | ralimetinib 0.002 | [2] -0.017 | [3] 0.029 | [4] -0.014 | [5] 0.013 | [6] -0.001 | [7] -0.01 | [8] -0.002 | vemurafenib 0.018 | [9] 0.021 | barasertib -0.019 | [10] 0.024 | volasertib -0.031 | [11] 0.022 | [12] -0.088 | [13] 0.048 | saracatinib -0.002 | sotrastaurin -0.031

SPN (UniProt P16150)
inactive: ibrutinib 0.051 | [1] -0.001 | ralimetinib -0.037 | [2] -0.001 | [3] -0.011 | [4] -0.016 | [5] -0.01 | [6] -0.011 | [7] 0.036 | [8] -0.044 | vemurafenib -0.012 | [9] -0.018 | barasertib -0.002 | [10] 0.074 | volasertib 0.034 | [11] -0.012 | [12] -0.011 | [13] 0.016 | saracatinib -0.003 | sotrastaurin 0.052

SRSF9 (UniProt Q13242)
inactive: ibrutinib -0.009 | [1] -0.009 | ralimetinib 0.001 | [2] -0.031 | [3] -0.031 | [4] -0.019 | [5] -0.089 | [6] 0.047 | [7] -0.028 | [8] -0.007 | vemurafenib -0.104 | [9] 0.009 | barasertib 0.049 | [10] -0.05 | volasertib -0.029 | [11] 0.03 | [12] -0.006 | [13] -0.029 | saracatinib -0.021 | sotrastaurin -0.064

SRRT (UniProt Q9BXP5)
inactive: ibrutinib 0.013 | [1] 0 | ralimetinib 0.026 | [2] 0.006 | [3] -0.01 | [4] -0.024 | [5] -0.012 | [6] -0.008 | [7] 0.043 | [8] -0.001 | vemurafenib 0.012 | [9] 0.012 | barasertib -0.008 | [10] -0.039 | volasertib -0.08 | [11] 0.042 | [12] 0.061 | [13] -0.1 | saracatinib -0.016 | sotrastaurin 0.02

SPPL2B (UniProt Q8TCT7)
inactive: ibrutinib 0.064 | [1] 0.074 | ralimetinib -0.043 | [2] -0.066 | [3] -0.047 | [4] -0.007 | [5] -0.038 | [6] 0.031 | [7] 0.074 | [8] -0.015 | vemurafenib 0.109 | [9] 0.045 | barasertib 0.069 | [10] 0.011 | volasertib 0.022 | [11] -0.046 | [12] -0.096 | [13] 0.022 | saracatinib 0.023 | sotrastaurin 0.022

ST6GAL1 (UniProt P15907)
inactive: ibrutinib 0.009 | [1] 0.089 | ralimetinib 0.001 | [2] -0.044 | [3] 0.054 | [4] 0.005 | [5] -0.058 | [6] 0.024 | [7] -0.005 | [8] -0.015 | vemurafenib 0.08 | [9] 0.009 | barasertib 0.022 | [10] 0.092 | volasertib -0.024 | [11] -0.031 | [12] 0.007 | [13] -0.042 | saracatinib 0.035 | sotrastaurin 0.038

SPRY4 (UniProt Q9C004)
inactive: ibrutinib 0 | [1] 0.003 | ralimetinib 0 | [2] -0.065 | [3] 0.005 | [4] -0.048 | [5] -0.034 | [6] 0.056 | [7] -0.023 | [8] -0.045 | vemurafenib 0.01 | [9] 0.012 | barasertib -0.071 | [10] 0.084 | volasertib 0.011 | [11] -0.039 | [12] 0.038 | [13] 0.02 | saracatinib 0.002 | sotrastaurin -0.003

SSB (UniProt P05455)
inactive: ibrutinib -0.007 | [1] -0.009 | ralimetinib -0.005 | [2] -0.006 | [3] 0.004 | [4] -0.015 | [5] -0.013 | [6] -0.006 | [7] 0.007 | [8] 0.006 | vemurafenib -0.004 | [9] -0.02 | barasertib -0.001 | [10] -0.011 | volasertib 0.011 | [11] 0.002 | [12] 0.011 | [13] -0.021 | saracatinib -0.015 | sotrastaurin -0.016
